Source: PMC8860247
These are yes or no findings as the source states them, for the method shown. Binding seen in cells or lysates may run through a third protein. Binding calls can cover weak binding; strength is not graded here. Sequences can lack the tags named with a protein. One block for each binder: values may come before it.

Assays:
[1] = molecular target: mKate2::ERM-1::VN155-HA-V5-InteinN (C. elegans); test: split reporter; SIMPL-mVenus: split intein with split mVenus (VN155 on ERM-1, VC155 on NRFL-1) co-expressed in C. elegans; apical mVenus in intestinal cells imaged by spinning disk microscopy, as ratio over mKate2::ERM-1
[2] = molecular target: ERM-1::V5::IN (C. elegans); test: split intein-mediated protein ligation (SIMPL); bait fused to V5-IN and prey fused to IC-FLAG co-expressed ubiquitously in C. elegans; spliced high molecular weight band detected by anti-V5 and anti-FLAG western blot of lysates

binding [1]: binds weakly
B1: NRFL-1a(ΔEB)::InteinC-3xFLAG-VC155 (domain or fragment, UniProt G5EDM4 1-439)
chain: MVHIPSDVTPPRLCVVEKLNGENEYGYNLHAEKGRGQFVGTVDPDSPAERGGLITGDRIFAVNGHSIIGENHKKVVERIKANPNRCEMLVISEEGAKWYNENNVQITLDLPNIERVSPMSKETPVFVPPPPPPTDAMPYLPRLAELNKGTPDQEFGFNLHAERGRGHFIGTVDAGGIGEKAGLEAGQRIVGVNGQLIYPTTGHKEVVALIKKDTMKTTLLVASEDVDKYHKDHNIAYSWDNVERVDTRPVINVETHHHHEEVSVPKSNGYDVPPLNPHSIQVNEEREISKMTTTTRTETITNSNSAYQYKESSTAYDAYATPPVDSNDLMDEVFGRVNLPGVTMSSHTEVLPPTDDISSVSSLSSHRESAVDVPVSHQYVPSYATESHQKHEQHSQTHHHHHQHQQPSPLSNGSSHGYAASSTSGYDDDDIYHLSAREA

binding [2]: binds
B2: IC-FLAG::NRFL-1 (protein, UniProt G5EDM4 1-467)
chain: MVHIPSDVTPPRLCVVEKLNGENEYGYNLHAEKGRGQFVGTVDPDSPAERGGLITGDRIFAVNGHSIIGENHKKVVERIKANPNRCEMLVISEEGAKWYNENNVQITLDLPNIERVSPMSKETPVFVPPPPPPTDAMPYLPRLAELNKGTPDQEFGFNLHAERGRGHFIGTVDAGGIGEKAGLEAGQRIVGVNGQLIYPTTGHKEVVALIKKDTMKTTLLVASEDVDKYHKDHNIAYSWDNVERVDTRPVINVETHHHHEEVSVPKSNGYDVPPLNPHSIQVNEEREISKMTTTTRTETITNSNSAYQYKESSTAYDAYATPPVDSNDLMDEVFGRVNLPGVTMSSHTEVLPPTDDISSVSSLSSHRESAVDVPVSHQYVPSYATESHQKHEQHSQTHHHHHQHQQPSPLSNGSSHGYAASSTSGYDDDDIYHLSAREARERLRMKNRKHHLHEMSLNEKYQLVSNM

binding [1]: binds
B3: NRFL-1a::InteinC-3xFLAG-VC155 (protein, UniProt G5EDM4 1-467)
chain: B2 chain
